The record followed here is PMC7294945.

Assay [1] deals with T1, Flag-SETDB2 (stably expressed in SETDB2-rescued SUM159PT cells) (human) (UniProt Q96T68).
T1 sequence: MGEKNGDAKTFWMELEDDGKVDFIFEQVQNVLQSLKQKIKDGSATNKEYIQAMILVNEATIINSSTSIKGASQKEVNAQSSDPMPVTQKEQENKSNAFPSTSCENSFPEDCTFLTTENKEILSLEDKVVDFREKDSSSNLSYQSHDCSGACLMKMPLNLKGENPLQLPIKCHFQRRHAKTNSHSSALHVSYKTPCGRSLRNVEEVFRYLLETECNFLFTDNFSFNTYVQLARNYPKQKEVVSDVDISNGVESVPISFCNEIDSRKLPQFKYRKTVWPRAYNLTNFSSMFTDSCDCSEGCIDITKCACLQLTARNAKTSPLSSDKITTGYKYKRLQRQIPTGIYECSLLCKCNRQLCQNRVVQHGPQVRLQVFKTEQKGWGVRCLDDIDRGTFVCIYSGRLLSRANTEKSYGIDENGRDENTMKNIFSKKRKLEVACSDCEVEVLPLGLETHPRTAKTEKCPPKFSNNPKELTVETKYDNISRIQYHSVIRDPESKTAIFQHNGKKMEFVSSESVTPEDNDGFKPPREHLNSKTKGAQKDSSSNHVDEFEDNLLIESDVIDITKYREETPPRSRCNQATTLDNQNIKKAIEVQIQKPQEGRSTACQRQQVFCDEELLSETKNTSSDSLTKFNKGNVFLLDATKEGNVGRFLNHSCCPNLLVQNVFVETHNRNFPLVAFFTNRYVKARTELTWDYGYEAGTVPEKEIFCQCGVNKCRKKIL
Description: co-IP; anti-FLAG M2-agarose beads on lysate of SETDB2-rescued SUM159PT cells (stable Flag-SETDB2); endogenous ΔNp63α detected by Western blot.

For assay [2], the target named is T2, SETDB2 (endogenous) (human (endogenous in SUM159PT and MDA-MB-231)) (UniProt Q96T68).
T2 sequence: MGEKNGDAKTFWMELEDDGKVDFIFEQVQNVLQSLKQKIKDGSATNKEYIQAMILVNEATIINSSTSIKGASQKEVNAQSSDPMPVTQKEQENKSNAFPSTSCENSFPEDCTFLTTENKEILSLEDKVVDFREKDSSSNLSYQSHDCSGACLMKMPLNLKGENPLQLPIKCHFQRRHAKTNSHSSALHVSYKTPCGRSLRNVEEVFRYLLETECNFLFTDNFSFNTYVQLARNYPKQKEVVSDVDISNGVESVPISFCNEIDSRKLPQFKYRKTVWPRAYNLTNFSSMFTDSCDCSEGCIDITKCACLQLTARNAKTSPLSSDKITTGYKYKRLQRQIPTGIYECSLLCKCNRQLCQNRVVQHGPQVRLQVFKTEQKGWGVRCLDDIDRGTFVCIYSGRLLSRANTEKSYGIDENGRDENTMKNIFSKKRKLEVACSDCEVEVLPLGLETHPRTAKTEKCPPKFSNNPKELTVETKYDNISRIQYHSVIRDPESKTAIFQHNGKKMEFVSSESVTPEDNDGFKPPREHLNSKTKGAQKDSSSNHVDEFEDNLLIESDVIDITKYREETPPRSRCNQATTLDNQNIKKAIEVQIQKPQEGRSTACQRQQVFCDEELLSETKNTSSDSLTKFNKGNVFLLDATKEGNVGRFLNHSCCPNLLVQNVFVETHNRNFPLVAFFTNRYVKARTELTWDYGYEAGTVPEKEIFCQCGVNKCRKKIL
Description: co-IP; endogenous proteins; anti-SETDB2 antibody and protein A-agarose beads, overnight at 4°C; SUM159PT and MDA-MB-231 lysates (50 mM Tris-HCl pH 7.4, 150 mM NaCl, 1 mM EDTA, 1% Triton X-100); Western blot.

In assay [3] the target is T3, Flag-SETDB2 (co-expressed in 293T cells) (human) (UniProt Q96T68).
T3 sequence: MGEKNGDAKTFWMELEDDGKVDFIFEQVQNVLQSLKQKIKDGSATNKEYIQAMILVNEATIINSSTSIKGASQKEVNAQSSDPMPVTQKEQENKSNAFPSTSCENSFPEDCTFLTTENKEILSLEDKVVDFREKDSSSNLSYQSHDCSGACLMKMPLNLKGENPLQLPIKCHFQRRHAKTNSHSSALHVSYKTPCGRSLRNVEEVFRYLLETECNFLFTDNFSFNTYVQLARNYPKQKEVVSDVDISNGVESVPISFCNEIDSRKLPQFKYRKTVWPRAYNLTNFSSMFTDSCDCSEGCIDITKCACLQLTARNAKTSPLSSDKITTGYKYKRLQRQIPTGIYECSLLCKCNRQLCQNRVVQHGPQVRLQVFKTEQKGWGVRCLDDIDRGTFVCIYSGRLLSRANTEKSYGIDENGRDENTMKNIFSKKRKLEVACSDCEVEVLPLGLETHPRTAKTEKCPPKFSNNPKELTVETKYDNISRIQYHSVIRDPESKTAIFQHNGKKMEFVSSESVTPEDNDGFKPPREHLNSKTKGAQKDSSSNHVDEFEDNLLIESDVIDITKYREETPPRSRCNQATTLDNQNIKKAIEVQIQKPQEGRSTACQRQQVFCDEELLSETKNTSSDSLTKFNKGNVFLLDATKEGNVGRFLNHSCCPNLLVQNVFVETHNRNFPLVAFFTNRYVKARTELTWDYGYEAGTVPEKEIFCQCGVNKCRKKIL
In words: co-IP; Flag-SETDB2 and HA-ΔNp63α co-expressed in 293T cells; co-immunoprecipitation and Western blot; which tag was precipitated is not given. In general terms: Immunoblotting shows a protein as a band on a membrane.

These are yes or no findings as the source states them, for the method shown. Binding seen in cells or lysates may run through a third protein. Some results given as binding are weak or reduced against the parent protein; the word gives no strength. For some of these results: Where a sequence is shown, tags or fusion partners need not be part of it.

B1: ΔNp63α (endogenous) (protein, UniProt Q9H3D4-2 1-586)
chain: MLYLENNAQTQFSEPQYTNLGLLNSMDQQIQNGSSSTSPYNTDHAQNSVTAPSPYAQPSSTFDALSPSPAIPSNTDYPGPHSFDVSFQQSSTAKSATWTYSTELKKLYCQIAKTCPIQIKVMTPPPQGAVIRAMPVYKKAEHVTEVVKRCPNHELSREFNEGQIAPPSHLIRVEGNSHAQYVEDPITGRQSVLVPYEPPQVGTEFTTVLYNFMCNSSCVGGMNRRPILIIVTLETRDGQVLGRRCFEARICACPGRDRKADEDSIRKQQVSDSTKNGDGTKRPFRQNTHGIQMTSIKKRRSPDDELLYLPVRGRETYEMLLKIKESLELMQYLPQHTIETYRQQQQQQHQHLLQKQTSIQSPSSYGNSSPPLNKMNSMNKLPSVSQLINPQQRNALTPTTIPDGMGANIPMMGTHMPMAGDMNGLSPTQALPPPLSMPSTSHCTPPPPYPTDCSIVSFLARLGCSSCLDYFTTQGLTTIYQIEHYSMDDLASLKIPEQFRHAIWKGILDHRQLHEFSSPSHLLRTPSSASTVSVGSSETRGERVIDAVRFTLRQTISFPPRDEWNDFNFDMDARRNKQQRIKEEGE
Take B1: the binding entry in assay [1] and in assay [2] was “binds” in each case.

B2: HA-ΔNp63α (protein, UniProt Q9H3D4-2 1-586)
chain: MLYLENNAQTQFSEPQYTNLGLLNSMDQQIQNGSSSTSPYNTDHAQNSVTAPSPYAQPSSTFDALSPSPAIPSNTDYPGPHSFDVSFQQSSTAKSATWTYSTELKKLYCQIAKTCPIQIKVMTPPPQGAVIRAMPVYKKAEHVTEVVKRCPNHELSREFNEGQIAPPSHLIRVEGNSHAQYVEDPITGRQSVLVPYEPPQVGTEFTTVLYNFMCNSSCVGGMNRRPILIIVTLETRDGQVLGRRCFEARICACPGRDRKADEDSIRKQQVSDSTKNGDGTKRPFRQNTHGIQMTSIKKRRSPDDELLYLPVRGRETYEMLLKIKESLELMQYLPQHTIETYRQQQQQQHQHLLQKQTSIQSPSSYGNSSPPLNKMNSMNKLPSVSQLINPQQRNALTPTTIPDGMGANIPMMGTHMPMAGDMNGLSPTQALPPPLSMPSTSHCTPPPPYPTDCSIVSFLARLGCSSCLDYFTTQGLTTIYQIEHYSMDDLASLKIPEQFRHAIWKGILDHRQLHEFSSPSHLLRTPSSASTVSVGSSETRGERVIDAVRFTLRQTISFPPRDEWNDFNFDMDARRNKQQRIKEEGE
As for B2, the binding entry in assay [3] is “binds”.

B3: ΔNp63β (endogenous) (protein, UniProt Q9H3D4-4 1-461)
chain: MLYLENNAQTQFSEPQYTNLGLLNSMDQQIQNGSSSTSPYNTDHAQNSVTAPSPYAQPSSTFDALSPSPAIPSNTDYPGPHSFDVSFQQSSTAKSATWTYSTELKKLYCQIAKTCPIQIKVMTPPPQGAVIRAMPVYKKAEHVTEVVKRCPNHELSREFNEGQIAPPSHLIRVEGNSHAQYVEDPITGRQSVLVPYEPPQVGTEFTTVLYNFMCNSSCVGGMNRRPILIIVTLETRDGQVLGRRCFEARICACPGRDRKADEDSIRKQQVSDSTKNGDGTKRPFRQNTHGIQMTSIKKRRSPDDELLYLPVRGRETYEMLLKIKESLELMQYLPQHTIETYRQQQQQQHQHLLQKQTSIQSPSSYGNSSPPLNKMNSMNKLPSVSQLINPQQRNALTPTTIPDGMGANIPMMGTHMPMAGDMNGLSPTQALPPPLSMPSTSHCTPPPPYPTDCSIVRIWQV
With B3, the binding entry in assay [2] is “binds weakly”.
